Results are given in words; binding and its absence hold for the method and conditions named. In cells and extracts the contact can be indirect. Some binding calls cover weakened binding; strength is not graded here.

Chains of the proteins cited; added tags and fusions are not shown. Lines headed by an entry give the natural chain unless they say otherwise; changes in a name come on top.
UniProt Q9NQB0: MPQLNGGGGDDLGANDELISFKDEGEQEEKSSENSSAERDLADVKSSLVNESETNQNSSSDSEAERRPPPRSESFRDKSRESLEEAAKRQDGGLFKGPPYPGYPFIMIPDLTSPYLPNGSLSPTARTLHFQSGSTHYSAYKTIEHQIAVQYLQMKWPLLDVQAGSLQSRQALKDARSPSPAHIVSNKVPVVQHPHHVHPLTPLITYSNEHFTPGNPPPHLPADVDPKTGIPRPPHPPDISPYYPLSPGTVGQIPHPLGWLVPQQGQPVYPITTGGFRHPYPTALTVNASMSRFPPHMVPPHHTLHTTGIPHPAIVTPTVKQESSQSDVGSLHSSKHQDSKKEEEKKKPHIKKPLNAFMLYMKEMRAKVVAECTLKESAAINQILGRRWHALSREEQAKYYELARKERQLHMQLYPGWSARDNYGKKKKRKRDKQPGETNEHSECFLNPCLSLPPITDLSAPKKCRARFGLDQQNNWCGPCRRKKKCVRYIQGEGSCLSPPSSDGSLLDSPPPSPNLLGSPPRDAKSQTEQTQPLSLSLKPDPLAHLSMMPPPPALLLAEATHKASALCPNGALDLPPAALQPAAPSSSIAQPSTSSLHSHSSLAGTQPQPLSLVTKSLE
UniProt Q9UKE5: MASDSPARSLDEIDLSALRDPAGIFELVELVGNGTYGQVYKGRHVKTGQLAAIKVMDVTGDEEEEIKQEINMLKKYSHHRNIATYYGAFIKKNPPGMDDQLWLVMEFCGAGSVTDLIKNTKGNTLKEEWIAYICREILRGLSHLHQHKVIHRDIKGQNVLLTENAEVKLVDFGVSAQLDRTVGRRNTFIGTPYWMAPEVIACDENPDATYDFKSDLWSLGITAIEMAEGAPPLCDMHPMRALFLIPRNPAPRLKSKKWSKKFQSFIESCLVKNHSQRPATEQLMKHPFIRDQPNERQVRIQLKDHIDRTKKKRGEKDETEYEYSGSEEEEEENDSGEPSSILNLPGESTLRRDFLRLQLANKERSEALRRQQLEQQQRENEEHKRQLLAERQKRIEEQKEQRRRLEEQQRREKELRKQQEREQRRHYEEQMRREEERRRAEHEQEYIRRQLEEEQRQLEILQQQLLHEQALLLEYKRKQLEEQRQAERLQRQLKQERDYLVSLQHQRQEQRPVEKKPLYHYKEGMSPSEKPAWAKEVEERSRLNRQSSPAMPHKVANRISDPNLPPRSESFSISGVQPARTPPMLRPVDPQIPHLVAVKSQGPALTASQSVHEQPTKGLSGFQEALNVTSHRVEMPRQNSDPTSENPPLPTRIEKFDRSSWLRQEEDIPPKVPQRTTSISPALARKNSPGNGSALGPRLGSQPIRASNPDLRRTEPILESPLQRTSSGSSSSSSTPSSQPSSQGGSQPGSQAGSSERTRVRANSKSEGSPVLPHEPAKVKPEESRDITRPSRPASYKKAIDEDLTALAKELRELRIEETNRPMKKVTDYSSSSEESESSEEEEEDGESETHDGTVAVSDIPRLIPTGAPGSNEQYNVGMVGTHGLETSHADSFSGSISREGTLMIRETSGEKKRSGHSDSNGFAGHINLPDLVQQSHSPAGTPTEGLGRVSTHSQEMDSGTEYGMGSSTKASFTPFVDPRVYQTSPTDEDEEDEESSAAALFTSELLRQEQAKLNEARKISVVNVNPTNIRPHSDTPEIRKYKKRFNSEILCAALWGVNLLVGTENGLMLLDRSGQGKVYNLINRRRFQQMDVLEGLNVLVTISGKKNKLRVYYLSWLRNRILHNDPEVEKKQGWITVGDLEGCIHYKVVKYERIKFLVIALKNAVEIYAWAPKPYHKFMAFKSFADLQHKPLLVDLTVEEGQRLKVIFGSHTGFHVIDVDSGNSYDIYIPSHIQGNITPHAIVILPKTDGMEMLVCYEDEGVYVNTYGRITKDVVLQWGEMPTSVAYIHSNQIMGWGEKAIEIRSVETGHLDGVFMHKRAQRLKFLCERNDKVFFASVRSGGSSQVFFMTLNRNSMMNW
UniProt P35222: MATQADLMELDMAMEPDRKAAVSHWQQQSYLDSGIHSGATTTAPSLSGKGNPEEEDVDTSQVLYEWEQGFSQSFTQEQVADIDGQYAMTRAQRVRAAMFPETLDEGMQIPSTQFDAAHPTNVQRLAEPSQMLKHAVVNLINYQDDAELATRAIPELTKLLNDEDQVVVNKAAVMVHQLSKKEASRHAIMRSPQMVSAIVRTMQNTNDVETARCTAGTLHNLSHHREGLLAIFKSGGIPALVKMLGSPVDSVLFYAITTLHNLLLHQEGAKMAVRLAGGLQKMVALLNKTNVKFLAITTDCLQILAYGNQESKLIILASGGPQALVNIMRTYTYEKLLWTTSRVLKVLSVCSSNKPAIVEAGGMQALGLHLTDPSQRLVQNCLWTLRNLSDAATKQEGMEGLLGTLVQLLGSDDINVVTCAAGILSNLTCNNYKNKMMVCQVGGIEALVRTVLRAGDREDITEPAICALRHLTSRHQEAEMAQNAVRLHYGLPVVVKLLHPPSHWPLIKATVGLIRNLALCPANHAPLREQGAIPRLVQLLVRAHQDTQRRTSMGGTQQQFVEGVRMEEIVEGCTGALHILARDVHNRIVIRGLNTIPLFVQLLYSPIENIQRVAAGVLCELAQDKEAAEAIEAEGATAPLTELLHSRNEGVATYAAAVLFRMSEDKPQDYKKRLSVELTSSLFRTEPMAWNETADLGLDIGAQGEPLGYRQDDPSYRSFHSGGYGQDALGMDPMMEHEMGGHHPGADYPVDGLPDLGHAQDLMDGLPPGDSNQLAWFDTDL

Experiment [1] deals with T-cell factor-4 (TCF4), endogenous, in extracts of DLD-1 and HCT-116 cells (human) (UniProt Q9NQB0). The experiment can be described thus: co-immunoprecipitation (anti-HA / anti-TCF4 monoclonal antibodies) and immunoblot; extracts of transfected DLD-1 and HCT-116 cells. A general note: In western blotting, separated proteins are transferred to a membrane and probed.
In experiment [2] the target is TRAF2 and NCK interacting kinase (TNIK), endogenous, in extracts of DLD-1 and HCT-116 cells (human) (UniProt Q9UKE5). The experiment can be described thus: co-immunoprecipitation with anti-TNIK rabbit polyclonal antibody, immunoblot with anti-TCF4; DLD-1 and HCT-116 cell extracts.
Experiment [3] has as its target β-catenin/TCF4 transcription complex (human) (UniProt P35222+Q9NQB0). The experiment can be described thus: co-immunoprecipitation and immunoblot, DLD-1 and HCT-116 cell extracts (figure legend).
Experiment [4] concerns the target T-cell factor-4 (TCF4), endogenous, in extracts of DLD-1 and HCT-116 cells (human) (UniProt Q9NQB0). The experiment is described as follows: co-immunoprecipitation with anti-TCF4 monoclonal antibody, immunoblot with anti-TNIK; DLD-1 and HCT-116 cell extracts.

Take “HA-TNIK, wild-type human TNIK full length expressed from pCIneo-HA-TNIK (from UniProt Q9UKE5 1-1360) (enzyme)”: the binding result in experiment [1] was “binds”. Regarding “T-cell factor-4 (TCF4), endogenous, in extracts of DLD-1 and HCT-116 cells (from UniProt Q9NQB0 1-619)”, in experiment [2], the binding entry is reported as “binds”. On to “TRAF2 and NCK interacting kinase (TNIK), endogenous, in extracts of DLD-1 and HCT-116 cells (from UniProt Q9UKE5 1-1360) (enzyme)”, for which the binding result in experiment [3] and in experiment [4] was “binds” throughout.
